Structures are written as SMILES. The list shows a part of the results. Single values are uncertain here, since repeats match poorly.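 Free-swimming zebrafish larvae were scored for O-bend response probability to dark flashes (naive: first five; training: remaining flashes of four 60-flash blocks; test: later 60-flash block) and for turning toward alternating leftward/rightward LED motion (OMR). Six treated larvae were compared with sixty 0.1% DMSO controls; |SSMD|≥2 defined a hit.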

This assay deals with Danio rerio larvae (5 dpf, TLF). Briefly: Prob-Train (SSMD vs DMSO vehicle); higher = higher than vehicle (e.g. higher dark-flash O-bend response probability, or better optomotor performance). To be noted: 10 µM; pre-incubation: 30-90 min.
For the compound `Cc1ccc(C)c(OCCCC(C)(C)C(=O)O)c1` [Gemfibrozil], the Prob-Train is -2.37.

As for `Oc1nc(-c2ccc(C(F)(F)F)cc2)nc2c1CSCC2`, the Prob-Train is -0.988.

Compound `CC(=O)[C@@H]1CC[C@H]2[C@@H]3CC=C4C[C@@H](O)CC[C@]4(C)[C@@H]3CC[C@]12C` [Pregnenolone] came in with a Prob-Train of -1.76.

`CN1CCC(=C2c3ccccc3CC(=O)c3sccc32)CC1.O=C(O)/C=C/C(=O)O` [Ketotifen Fumarate] registered a Prob-Train of -0.381.

`C[C@]12C=CC(=O)N[C@@H]1CC[C@@H]1[C@H]2CC[C@]2(C)[C@H](C(=O)Nc3cc(C(F)(F)F)ccc3C(F)(F)F)CC[C@@H]12` [Dutasteride] came in with a Prob-Train of -1.27.

`C#C[C@@]1(O)CC[C@H]2[C@@H]3CCc4cc(O)ccc4[C@@H]3CC[C@@]21C` [Ethinyl Estradiol] had a Prob-Train of -2.01.

The compound `O=c1cc(N2CCOCC2)oc2c1ccc1ccccc12` registered a Prob-Train of 0.0366.

The compound `COc1cccc(-c2cc(=O)c3ccccc3o2)c1N` came in with a Prob-Train of -0.837.

Turning to `C[C@@H]1C[C@H]2[C@@H]3CCC4=CC(=O)C=C[C@]4(C)[C@]3(F)[C@H](O)C[C@]2(C)[C@]1(O)C(=O)CO` [Dexamethasone (DHAP)], the Prob-Train turned out to be 0.241.

Compound `CCNC(=O)[C@H]1O[C@@H](n2cnc3c(N)nc(NCCc4ccc(CCC(=O)O)cc4)nc32)[C@@H](O)[C@@H]1O.Cl` returned a Prob-Train of -0.181.

`C[C@@H]1O[C@@H](OC[C@H]2O[C@@H](Oc3c(-c4ccc(O)c(O)c4)oc4cc(O)cc(O)c4c3=O)[C@@H](O)[C@@H](O)[C@@H]2O)[C@@H](O)[C@H](O)[C@H]1O` [Rutin] displayed a Prob-Train of 0.0979.

In the case of `OCC(CO)N[C@H]1C[C@@](O)(CO)[C@@H](O)[C@H](O)[C@H]1O` [Voglibose], the Prob-Train was -0.158.

The compound `CC(C)Cn1cnc2c(N)nc3ccccc3c21` [Imiquimod] came in with a Prob-Train of 0.379.

For `Cn1cc(C2=C(c3ccc(Cl)cc3Cl)C(=O)NC2=O)c2ccccc21`, the Prob-Train was -0.611.
